The target in test [1] is T1, FLAG-HA tagged Syntaxin 5 (FH-STX5), full length (human) (UniProt Q13190).
T1 sequence: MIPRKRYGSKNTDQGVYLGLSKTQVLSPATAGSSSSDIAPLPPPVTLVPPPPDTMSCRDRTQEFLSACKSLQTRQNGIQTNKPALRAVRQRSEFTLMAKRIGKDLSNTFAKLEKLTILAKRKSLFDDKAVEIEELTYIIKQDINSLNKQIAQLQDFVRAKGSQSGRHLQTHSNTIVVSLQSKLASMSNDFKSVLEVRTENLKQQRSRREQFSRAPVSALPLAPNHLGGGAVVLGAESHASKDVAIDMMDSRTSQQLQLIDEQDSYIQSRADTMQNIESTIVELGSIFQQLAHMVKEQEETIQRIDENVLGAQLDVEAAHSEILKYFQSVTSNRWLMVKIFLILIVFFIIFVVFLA
Kind of test: pull-down.

Chains of the proteins cited; added tags and fusions are not shown.
UniProt Q15717: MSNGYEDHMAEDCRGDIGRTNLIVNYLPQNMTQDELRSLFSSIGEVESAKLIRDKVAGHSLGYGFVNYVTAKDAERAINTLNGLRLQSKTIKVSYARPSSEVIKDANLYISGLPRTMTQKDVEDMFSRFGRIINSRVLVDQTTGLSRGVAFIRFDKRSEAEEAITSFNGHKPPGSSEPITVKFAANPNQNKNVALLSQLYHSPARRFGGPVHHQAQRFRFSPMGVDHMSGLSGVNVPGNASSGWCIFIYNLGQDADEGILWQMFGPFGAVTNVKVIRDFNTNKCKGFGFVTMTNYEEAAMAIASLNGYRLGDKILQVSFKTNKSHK
UniProt B5DF91: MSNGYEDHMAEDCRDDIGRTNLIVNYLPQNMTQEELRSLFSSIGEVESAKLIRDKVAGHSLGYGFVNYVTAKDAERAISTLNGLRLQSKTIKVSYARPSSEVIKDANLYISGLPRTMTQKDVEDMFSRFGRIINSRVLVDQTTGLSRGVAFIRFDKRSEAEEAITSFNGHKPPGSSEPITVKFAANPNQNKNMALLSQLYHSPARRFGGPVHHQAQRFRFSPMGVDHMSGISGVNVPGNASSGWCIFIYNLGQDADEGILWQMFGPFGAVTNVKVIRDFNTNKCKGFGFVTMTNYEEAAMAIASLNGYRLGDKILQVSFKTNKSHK

For test [2], the target named is T1, FLAG-HA tagged Syntaxin 5 (FH-STX5), full length (human). The experiment in a line: co-IP.
Test [3] deals with HA-tagged HuR (HA-HuR), full length (human) (UniProt Q15717). Kind of test: co-IP.

3 molecules from doi:10.1101/2023.09.08.556844 can be followed below.

These are yes or no findings as the source states them, for the method shown. For part of these data: Binding seen in cells or lysates may run through a third protein. Some entries that bind do so weakly or less than the wild type. For part of these data: Where a sequence is shown, tags or fusion partners need not be part of it.

“His-tagged recombinant HuR (rHuR) (from UniProt Q15717 1-326)”: in test [1], the binding entry is “binds”.
For the molecule “HuR, endogenous in C6 cells (from UniProt B5DF91 1-326)”, in test [2], the binding result is on record as “binds”.

B1: Syntaxin 5, endogenous in C6 cells (protein, UniProt Q08851 1-355)
chain: MIPRKRYGSKNTDQGVYLGLSKTQVLSPATAINSSSDIAPLPTPVALVPSPPDTMSCRDRTQEFLSACKSLQSRQNGIQTNKPALHATRQCSEFTLMARRIGKDLSNTFAKLEKLTILAKRKSLFDDKAVEIEELTYIIKQDINSLNKQIAQLQDFVRAKGSQSGRHLQTHSNTIVVSLQSKLASMSNDFKSVLEVRTENLKQQRNRREQFSRAPVSALPLAPNNLGGGPIVLGGESRASRDVAIDMMDPRTSQQLQLIDEQDSYIQSRADTMQNIESTIVELGSIFQQLAHMVKEQEETIQRIDENVLGAQLDVEAAHSEILKYFQSVTSNRWLMVKIFLILIVFFIIFVVFLA
On to B1, for which, in test [3], the binding result is “binds”.
